According to article doi:10.1101/2022.03.09.483624:
No constants are given. Whether binding was seen depends on the method and setting. In cells and extracts the contact can be indirect. Some entries that bind do so weakly or less than the wild type. Where a sequence is shown, tags or fusion partners need not be part of it.

Amino acid sequences for entries named in this document (tags omitted).
UniProt Q14676, whole entry: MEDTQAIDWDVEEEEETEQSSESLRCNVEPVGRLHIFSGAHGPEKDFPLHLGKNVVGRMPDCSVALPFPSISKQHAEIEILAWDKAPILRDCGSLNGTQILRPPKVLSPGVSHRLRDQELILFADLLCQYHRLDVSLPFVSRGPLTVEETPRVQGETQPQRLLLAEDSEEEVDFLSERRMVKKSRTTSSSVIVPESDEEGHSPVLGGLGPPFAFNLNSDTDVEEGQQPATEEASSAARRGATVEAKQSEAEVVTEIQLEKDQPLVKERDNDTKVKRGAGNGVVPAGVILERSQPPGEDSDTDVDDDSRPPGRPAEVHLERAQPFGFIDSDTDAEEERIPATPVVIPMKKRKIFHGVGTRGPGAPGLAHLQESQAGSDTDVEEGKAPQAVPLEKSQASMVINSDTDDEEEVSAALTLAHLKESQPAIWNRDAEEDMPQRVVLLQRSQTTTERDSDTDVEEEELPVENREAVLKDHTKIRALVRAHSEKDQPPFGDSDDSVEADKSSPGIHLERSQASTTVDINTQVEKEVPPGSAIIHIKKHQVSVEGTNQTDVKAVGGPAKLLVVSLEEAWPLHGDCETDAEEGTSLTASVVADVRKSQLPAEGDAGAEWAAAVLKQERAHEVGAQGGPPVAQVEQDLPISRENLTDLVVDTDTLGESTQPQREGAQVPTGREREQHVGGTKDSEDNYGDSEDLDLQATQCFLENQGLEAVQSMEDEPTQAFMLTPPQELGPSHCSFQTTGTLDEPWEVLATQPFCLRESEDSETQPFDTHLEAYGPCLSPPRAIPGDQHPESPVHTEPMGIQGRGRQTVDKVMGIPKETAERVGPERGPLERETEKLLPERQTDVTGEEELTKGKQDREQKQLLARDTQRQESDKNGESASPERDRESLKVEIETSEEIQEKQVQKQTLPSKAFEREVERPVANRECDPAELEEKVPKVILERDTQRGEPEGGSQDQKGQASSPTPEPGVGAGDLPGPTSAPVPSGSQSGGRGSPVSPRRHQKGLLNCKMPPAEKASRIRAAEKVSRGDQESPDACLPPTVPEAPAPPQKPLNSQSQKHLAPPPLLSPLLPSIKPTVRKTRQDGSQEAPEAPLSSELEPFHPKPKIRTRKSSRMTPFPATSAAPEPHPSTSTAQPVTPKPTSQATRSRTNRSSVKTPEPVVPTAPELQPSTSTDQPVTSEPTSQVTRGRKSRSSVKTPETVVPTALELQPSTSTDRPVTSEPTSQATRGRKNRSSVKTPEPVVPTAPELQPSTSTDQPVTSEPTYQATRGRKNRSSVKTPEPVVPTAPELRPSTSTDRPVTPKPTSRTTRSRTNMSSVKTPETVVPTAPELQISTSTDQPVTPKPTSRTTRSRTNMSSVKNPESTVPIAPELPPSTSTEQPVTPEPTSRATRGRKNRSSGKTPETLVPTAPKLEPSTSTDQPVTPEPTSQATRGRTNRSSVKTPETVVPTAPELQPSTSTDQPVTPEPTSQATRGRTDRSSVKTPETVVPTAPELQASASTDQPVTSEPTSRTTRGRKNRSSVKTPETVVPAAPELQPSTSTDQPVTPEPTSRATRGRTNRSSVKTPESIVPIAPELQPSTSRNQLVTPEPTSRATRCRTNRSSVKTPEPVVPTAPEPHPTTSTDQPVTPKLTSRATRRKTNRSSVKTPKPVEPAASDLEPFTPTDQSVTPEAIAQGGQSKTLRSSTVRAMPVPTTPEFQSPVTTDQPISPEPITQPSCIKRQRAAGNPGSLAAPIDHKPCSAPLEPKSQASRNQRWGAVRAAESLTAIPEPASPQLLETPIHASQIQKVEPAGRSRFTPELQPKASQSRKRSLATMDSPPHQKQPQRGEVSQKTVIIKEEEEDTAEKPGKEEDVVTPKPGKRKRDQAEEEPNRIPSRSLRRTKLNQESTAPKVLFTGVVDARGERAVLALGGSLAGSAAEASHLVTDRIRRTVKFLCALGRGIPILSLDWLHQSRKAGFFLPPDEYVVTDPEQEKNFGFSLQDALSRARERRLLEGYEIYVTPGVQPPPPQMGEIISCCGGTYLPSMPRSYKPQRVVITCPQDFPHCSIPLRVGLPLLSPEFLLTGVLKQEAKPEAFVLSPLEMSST

Molecular target: T1, Sin3B-FLAG (UniProt O75182)
T1 sequence: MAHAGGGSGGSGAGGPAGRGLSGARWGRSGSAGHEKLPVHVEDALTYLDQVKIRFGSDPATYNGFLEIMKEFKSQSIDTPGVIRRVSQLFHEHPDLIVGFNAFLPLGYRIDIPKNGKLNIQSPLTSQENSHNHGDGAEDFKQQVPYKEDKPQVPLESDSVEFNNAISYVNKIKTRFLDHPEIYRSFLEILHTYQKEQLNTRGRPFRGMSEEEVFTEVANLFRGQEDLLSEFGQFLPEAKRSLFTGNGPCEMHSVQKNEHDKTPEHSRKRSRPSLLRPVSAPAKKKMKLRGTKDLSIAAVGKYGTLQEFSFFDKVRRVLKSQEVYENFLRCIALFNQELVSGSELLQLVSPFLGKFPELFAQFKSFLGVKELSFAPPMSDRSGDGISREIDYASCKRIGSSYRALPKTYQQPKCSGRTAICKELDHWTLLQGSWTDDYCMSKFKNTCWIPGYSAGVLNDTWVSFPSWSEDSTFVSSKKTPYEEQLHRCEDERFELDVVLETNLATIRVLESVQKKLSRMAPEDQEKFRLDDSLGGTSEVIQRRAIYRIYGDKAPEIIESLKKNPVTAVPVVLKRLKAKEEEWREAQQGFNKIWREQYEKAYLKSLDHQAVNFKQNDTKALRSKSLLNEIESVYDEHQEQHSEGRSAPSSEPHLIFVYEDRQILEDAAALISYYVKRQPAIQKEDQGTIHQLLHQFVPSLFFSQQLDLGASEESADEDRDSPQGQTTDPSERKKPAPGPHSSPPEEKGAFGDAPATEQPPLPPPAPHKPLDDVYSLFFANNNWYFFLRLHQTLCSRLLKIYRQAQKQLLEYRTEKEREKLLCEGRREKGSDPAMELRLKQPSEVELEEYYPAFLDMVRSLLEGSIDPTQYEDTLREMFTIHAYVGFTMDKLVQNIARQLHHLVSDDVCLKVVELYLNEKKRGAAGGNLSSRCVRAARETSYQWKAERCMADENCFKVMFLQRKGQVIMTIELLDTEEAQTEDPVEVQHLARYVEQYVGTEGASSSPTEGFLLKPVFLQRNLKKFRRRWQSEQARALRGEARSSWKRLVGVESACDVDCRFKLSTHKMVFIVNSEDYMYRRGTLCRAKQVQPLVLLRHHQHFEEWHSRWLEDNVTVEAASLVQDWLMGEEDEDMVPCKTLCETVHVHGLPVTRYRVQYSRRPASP
Test: co-IP

binding | Substance
binds | MDC1-GFP (from UniProt Q14676 1-2089)
binds | Mediator of DNA Damage Checkpoint 1 (MDC1), endogenous (from UniProt Q14676 1-2089)
